In patent US8039430B2 (University of Wollongong, priority 2005, dated 2011):

Tests used:
[1] = general procedure: solution-phase peptide synthesis; conditions: late stage modification step
[2] = solution-phase peptide synthesis; conditions: coupling step

Substance	step yield [1] [%]	step yield [2] [%]	further results
Benzyl(2S,5R,8R,11S)-2-allyl-8-(4-aminobutyl)-3,6,9,12-tetraaza-5-(3-guanidinopropyl)-4,7,10,13-tetraoxo-11-(4-[9-phenanthrenyl]benzyl)tetradecanoate	79	–	–
Benzyl(2S,5R,8R,11S)-2-allyl-8-(4-aminobutyl)-11-(4-[9-anthracenyl]benzyl)-3,6,9,12-tetraaza-5-(3-guanidinopropyl)-4,7,10,13-tetraoxotetradecanoate	88	–	–
Benzyl(2S,5R,8R,11S)-2-allyl-11-(4-allyloxybenzyl)-8-(4-aminobutyl)-3,6,9,12-tetraaza-5-(3-[guanidino]propyl)-4,7,10,13-tetraoxotetradecanoate hydrochloride	–	–	step yield ([1]; hydrochloride): 82%
Benzyl(2S,5R,8R,11S)-2-allyl-11-(4-allyloxybenzyl)-3,6,9,12-tetraaza-8-(4-[tert-butoxycarboxamido]butyl)-5-([{2,2,5,7,8-pentamethyl-3,4-dihydro-2H-6-chromenylsulfonamido}guanidino]propyl)-4,7,10,13-tetraoxotetradecanoate	–	85	–
Benzyl(2S,5R,8R,11S)-2-allyl-11-(4-[9-anthracenyl]benzyl)-3,6,9,12-tetraaza-8-(4-[tert-butoxycarboxamido]butyl)-5-([{2,2,5,7,8-pentamethyl-3,4-dihydro-2H-6-chromenylsulfonyl}guanidino]propyl)-4,7,10,13-tetraoxotetradecanoate	–	36	–
